From PubChem BioAssay AID212 (DTP/NCI, 2004) come the findings set out here.

This test concerns BDF1 mice, colon carcinoma 38 sc, T/C %. As to the kind of experiment: NCI In Vivo Anticancer Drug Screen. Data for tumor model Colon Carcinoma 38 (subcutaneous) in B6D2F1 (BDF1) mice. As to conditions: T/C endpoint: median tumor weight (est.), higher T/C = larger tumour; for T/C: evaluated on day 20. In short, it runs like this: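 Ratio of survival or tumor size, compound-treated animals relative to vehicle controls, in tumor-bearing mice.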

Setting [1] is: dose: 25.0 mg/kg/injection, schedule: Q07DX002 (ip), vehicle: saline.
Setting [2] is: dose: 100.0 mg/kg/injection, schedule: Q07DX002 (ip), vehicle: Klucel (hydroxypropylcellulose) (HPC).
Where [3] appears, read: dose: 200.0 mg/kg/injection, schedule: Q07DX002 (ip), vehicle: Klucel (hydroxypropylcellulose) (HPC).
Where [4] appears, read: dose: 400.0 mg/kg/injection, schedule: Q07DX002 (ip), vehicle: Klucel (hydroxypropylcellulose) (HPC).
[5] abbreviates: dose: 100.0 mg/kg/injection, schedule: Q07DX002 (ip), vehicle: saline.
[6] abbreviates: dose: 400.0 mg/kg/injection, schedule: Q07DX002 (ip), vehicle: saline with Tween-80.
Setting [7] is: dose: 50.0 mg/kg/injection, schedule: Q07DX002 (ip), vehicle: saline.
Where [8] appears, read: dose: 400.0 mg/kg/injection, schedule: Q07DX002 (ip), vehicle: saline.
The mark [9] stands for this setting: dose: 50.0 mg/kg/injection, schedule: Q07DX002 (ip), vehicle: Klucel (hydroxypropylcellulose) (HPC).
[10] abbreviates: dose: 200.0 mg/kg/injection, schedule: Q07DX002 (ip), vehicle: saline with Tween-80.
Setting [11] is: dose: 100.0 mg/kg/injection, schedule: Q07DX002 (ip), vehicle: saline with Tween-80.
Setting [12] is: dose: 800.0 mg/kg/injection, schedule: Q07DX002 (ip), vehicle: Klucel (hydroxypropylcellulose) (HPC).

The list does not hold the whole screen: it is rich in T/C values a quarter to a half above the control, in often repeated tests (any T/C) and in doses without a T/C. Further doses and runs are listed elsewhere. T/C: endpoint of the treated group in % of that of the vehicle group. Schedule codes are those of the source, read here as Q, the interval in days (D) or hours (H), X, the number of doses. Some T/C values are followed by the survivors on the day toxicity was checked, most often the fifth; without a count, all were alive then. Some entries hold several experiments; the values are given in rising order. Some entries give survivors of the animals treated and no T/C: the source files T/C as zero there, which appears to mark a toxic dose or a test without result, not a measured value. Survivors were counted at the toxicity check, usually on the fifth day, unless a day is given; later deaths do not show. Where a SMILES comes first, the peptide text is derived from it. Bridges are numbered along the chain shown (N, C = ends). Roman numbers before positions name the chains, in order. [ ]: non-standard residue; d: D form. The star is where a group is joined. Quinoxaline2carbonyl = O=C(c1cnc2ccccc2n1)*; NMeV = CN[CH](C(=O)O)C(C)C; NMeC = CN[CH](CS)C(=O)O

Regarding `CCCNC1=C(C)C(=O)C2=C(C1=O)[C@H](COC(N)=O)[C@]1(OC)[C@@H]3N[C@@H]3CN21`, the survivor count reads like this: (dose: 24.0 mg/kg/injection, schedule: Q07DX002 (ip), vehicle: suspension in saline) 2 of 10 on day 20; under setting [1], 1 of 10 on day 20; (dose: 48.0 mg/kg/injection, schedule: Q07DX002 (ip), vehicle: suspension in saline) 1 of 10 on day 20.

With `CCc1ccc(C2=C(O)C(=O)C(c3ccccc3)=C(O)C2=O)cc1`, the survivor count by setting is: under setting [2], 0 of 10 on day 20; under setting [3], 0 of 10 on day 20; under setting [4], 0 of 10 on day 20.

Regarding `[CH3][Sn]([CH3])([Cl])[S]CCN`, the survivor count is, setting by setting: under setting [5], 2 of 10 on day 20; (dose: 200.0 mg/kg/injection, schedule: Q07DX002 (ip), vehicle: saline) 0 of 10 on day 20.

For `C=CCNc1nc2c(s1)CCc1cc(OC)c(OC)cc1-2`, for the setting “dose: 12.5 mg/kg/injection, schedule: Q07DX002 (ip), vehicle: saline with Tween-80”, the T/C is 128 % of control. Under setting [6], the survivor count was 3 of 10 on day 20.

`O=C1C=CC(n2cc(F)c(=O)[nH]c2=O)O1` (centres undefined): the T/C is, setting by setting: under setting [1], 135 % of control [9 of 10 alive on day 20]; under setting [7], 139 % of control [8 of 10 alive on day 20].

Turning to `CCCC(=O)O.CCCC(=O)O.CCCC(=O)O.CCCC(=O)O.[Rh].[Rh]`, the survivor count runs as follows: (dose: 2.0 mg/kg/injection, schedule: Q07DX002 (ip), vehicle: saline + alcohol) 3 of 10 on day 20; (dose: 4.0 mg/kg/injection, schedule: Q07DX002 (ip), vehicle: saline + alcohol) 1 of 10 on day 20.

With `CC1NC(=O)C(NC(=O)c2cnc3ccccc3n2)COC(=O)C(C(C)C)N(C)C(=O)C2CSSCC(C(=O)N(C)C(C(C)C)C(=O)OCC(NC(=O)c3cnc4ccccc4n3)C(=O)NC(C)C(=O)N2C)N(C)C1=O` (centres undefined) (I: Quinoxaline2carbonyl-SA[NMeC][NMeV] / II: Quinoxaline2carbonyl-SA[NMeC][NMeV]; ester I:1-II:C, I:C-II:1; disulfide I:3-II:3; configuration not given here), the survivor count is recorded as 3 of 10 on day 20 (dose: 400.0 micrograms/kg/injection, schedule: Q07DX002 (ip), vehicle: Klucel (hydroxypropylcellulose) (HPC)) and 1 of 10 on day 20 (dose: 800.0 micrograms/kg/injection, schedule: Q07DX002 (ip), vehicle: Klucel (hydroxypropylcellulose) (HPC)).

For `CCOC(=O)c1ccc(NC(=O)Nc2nncs2)cc1`, the T/C (dose: 12.5 mg/kg/injection, schedule: Q07DX002 (ip), vehicle: distilled water + Tween-80) is 136 % of control [9 of 10 alive]; the T/C (dose: 50.0 mg/kg/injection, schedule: Q07DX002 (ip), vehicle: distilled water + Tween-80) was 127 % of control; the T/C (dose: 400.0 mg/kg/injection, schedule: Q07DX002 (ip), vehicle: distilled water + Tween-80) is 140 and 148 % of control [8 of 10 alive].

As for `Cc1ccccc1N(CC1CO1)CC1CO1` (centres undefined), the T/C was 130 % of control [9 of 10 alive on day 20] under setting [1], 133 % of control [8 of 10 alive on day 20] under setting [7], 130 % of control under setting [5] and 126 % of control under setting [8]. For the same molecule, the survivor count is recorded as 4 of 10 on day 20 under setting [6] and 0 of 10 on day 20 (dose: 800.0 mg/kg/injection, schedule: Q07DX002 (ip), vehicle: saline with Tween-80).

With `CCCCC(=O)OCC(=O)[C@]1(O)Cc2c(O)c3c(c(O)c2[C@@H](OC2CC(NC(=O)C(F)(F)F)C(O)C(C)O2)C1)C(=O)c1c(OC)cccc1C3=O` (some centres undefined), the T/C (dose: 50.0 mg/kg/injection, schedule: Q07DX002 (ip), vehicle: water) is 140 % of control.

Take `C[C@]12CCC(=O)C=C1CC[C@@H]1[C@@H]2[C@@H](O)C[C@@]2(C)[C@H]1CC[C@]2(O)C(=O)CO`: the T/C (dose: 40.0 mg/kg/injection, schedule: Q07DX003 (ip), vehicle: Klucel (hydroxypropylcellulose) (HPC)) was 141 % of control; the T/C under setting [9] was 129 % of control; the T/C (dose: 80.0 mg/kg/injection, schedule: Q07DX003 (ip), vehicle: Klucel (hydroxypropylcellulose) (HPC)) is 131 % of control; the T/C under setting [2] is 125 % of control [9 of 10 alive on day 20]; the T/C (dose: 320.0 mg/kg/injection, schedule: Q07DX003 (ip), vehicle: Klucel (hydroxypropylcellulose) (HPC)) is 133 % of control.

For the molecule `Cc1cc2cc3cc(C)c(N)cc3nc2cc1N`, the T/C (dose: 25.0 mg/kg/injection, schedule: Q07DX002 (ip), vehicle: saline with Tween-80) was 138 % of control. Under setting [10], the survivor count is on record as 3 of 10 on day 20.

Consider `Nc1nc(N)c2c(Cl)c(CNc3ccc(Cl)c(Cl)c3)ccc2n1`, for which the T/C (dose: 3.12 mg/kg/injection, schedule: Q07DX002 (ip), vehicle: saline with Tween-80) is 126 % of control. Further, the survivor count is reported as 6 of 10 on day 20 under setting [11] and 3 of 10 on day 20 under setting [10].

Take `OCC12COCN1COC2`: for the setting “dose: 800.0 mg/kg/injection, schedule: Q07DX002 (ip), vehicle: saline”, the T/C is 132 % of control.

For the molecule `COc1ccc2c(c1)CCC(c1ccccc1)=C2c1ccc(OCCN2CCCC2)cc1`, the T/C under setting [9] is 142 % of control. For the same molecule, the survivor count is on record as 3 of 10 on day 20 under setting [3] and 0 of 10 on day 20 under setting [4].

With `O=C1C(O)=C(c2ccccc2)C(=O)C(O)=C1c1ccccc1`, the survivor count is, setting by setting: under setting [11], 6 of 10 on day 20; under setting [10], 5 of 10 on day 20; under setting [6], 0 of 10 on day 20; under setting [8], 6 of 10 on day 20.

In the case of `CCNC(=O)[B-][N+](C)(C)C`, the T/C under setting [9] is 141 % of control. Further, the survivor count under setting [12] was 5 of 10 on day 20 and the survivor count (dose: 1600.0 mg/kg/injection, schedule: Q07DX002 (ip), vehicle: Klucel (hydroxypropylcellulose) (HPC)) is reported as 0 of 10 on day 20.

Regarding `c1ccc([P+](c2ccccc2)(c2ccccc2)c2ccccc2)cc1`, the survivor count (dose: 12.0 mg/kg/injection, schedule: Q07DX002 (ip), vehicle: saline) is on record as 3 of 10 on day 20; the survivor count (dose: 12.0 mg/kg/injection, schedule: Q07DX003 (ip), vehicle: saline) is listed as 2 of 10 on day 20; the survivor count (dose: 24.0 mg/kg/injection, schedule: Q07DX002 (ip), vehicle: saline) is reported as 0 of 10 on day 20; the survivor count (dose: 24.0 mg/kg/injection, schedule: Q07DX003 (ip), vehicle: saline) was 0 of 10 on day 20.

Regarding `O=C(CCCN1CCC(O)(c2cccc(C(F)(F)F)c2)CC1)c1ccc(F)cc1`, the T/C (dose: 50.0 mg/kg/injection, schedule: Q07DX003 (ip), vehicle: Klucel (hydroxypropylcellulose) (HPC)) was 127 % of control.

On to `O=c1ssc(=Nc2ccccc2)n1-c1ccccc1`, for which the survivor count under setting [12] is 2 of 10 on day 20 and 3 of 9 on day 20.

With `C[C@H](N)C(=O)N[C@@H]1[C@H]2C(=C(O)C[C@@H](O)[C@@H]2O)C(=O)O[C@]1(C)C(Cl)Cl`, for the setting “dose: 12.0 mg/kg/injection, schedule: Q07DX002 (ip), vehicle: Klucel (hydroxypropylcellulose) (HPC)”, the survivor count is 0 of 10 on day 20 and 2 of 10 on day 20.
